# Results: doi:10.1101/2024.12.16.627577
# By UniProt entry, the sequences of proteins in these tests, tags left out.
# UniProt P63044: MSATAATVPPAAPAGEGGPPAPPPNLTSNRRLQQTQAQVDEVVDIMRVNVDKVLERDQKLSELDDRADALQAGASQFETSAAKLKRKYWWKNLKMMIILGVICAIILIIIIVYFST
# Like-named read-outs stand apart in the source and are kept apart here. These are yes or no findings as the source states them, for the method shown. In cells and extracts the contact can be indirect. Some binding calls cover weakened binding; strength is not graded here.
# T1: Syntaxin 8 (mouse) (mouse (endogenous in iBMDMs)) (UniProt O88983)
# T1 sequence: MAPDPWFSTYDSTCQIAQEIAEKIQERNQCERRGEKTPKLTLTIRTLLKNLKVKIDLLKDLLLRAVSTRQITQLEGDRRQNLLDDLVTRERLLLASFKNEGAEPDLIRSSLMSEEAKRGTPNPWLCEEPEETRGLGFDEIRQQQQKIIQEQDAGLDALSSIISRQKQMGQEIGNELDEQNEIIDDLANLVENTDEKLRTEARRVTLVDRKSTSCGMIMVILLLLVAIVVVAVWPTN
# T2: Vesicle Transport through Interaction with t-SNAREs 1B (mouse) (mouse (endogenous in iBMDMs)) (UniProt O88384)
# T2 sequence: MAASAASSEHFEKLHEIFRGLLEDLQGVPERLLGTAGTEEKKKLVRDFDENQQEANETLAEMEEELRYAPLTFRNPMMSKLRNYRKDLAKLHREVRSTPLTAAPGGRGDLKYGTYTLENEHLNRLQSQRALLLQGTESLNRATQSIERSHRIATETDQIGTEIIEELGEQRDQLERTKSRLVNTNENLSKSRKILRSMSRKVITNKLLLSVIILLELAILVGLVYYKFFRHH
# T3: Syntaxin 8 (human) (human (endogenous in THP-1)), Q9UNK0
# T3 chain: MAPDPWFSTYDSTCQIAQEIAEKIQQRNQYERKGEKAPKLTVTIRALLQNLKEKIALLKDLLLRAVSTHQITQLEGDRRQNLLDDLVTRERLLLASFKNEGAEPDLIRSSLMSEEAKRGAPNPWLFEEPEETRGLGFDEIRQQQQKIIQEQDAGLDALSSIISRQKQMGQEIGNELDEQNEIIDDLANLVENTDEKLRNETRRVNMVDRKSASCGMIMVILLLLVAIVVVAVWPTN
# How the values were obtained:
# Test in all cases: co-IP
# [1] = target: T1, Syntaxin 8 (mouse) (mouse (endogenous in iBMDMs))
# [2] = target: T2, Vesicle Transport through Interaction with t-SNAREs 1B (mouse) (mouse (endogenous in iBMDMs))
# [3] = target: T1, Syntaxin 8 (mouse) (mouse (endogenous in iBMDMs)); remark: listed apart in the source
# [4] = target: T2, Vesicle Transport through Interaction with t-SNAREs 1B (mouse) (mouse (endogenous in iBMDMs)); remark: listed apart in the source
# [5] = target: T3, Syntaxin 8 (human) (human (endogenous …)); details: remark: other sources report otherwise
Molecule,binding [1],binding [2],binding [3],binding [4],binding [5]
Vesicle Associated Membrane Protein 2 (mouse) (from UniProt P63044 1-116),binds,binds,binds,binds,–
"VAMP8 (mouse) (protein, UniProt O70404 1-101) MEEASGSAGNDRVRNLQSEVEGVKNIMTQNVERILSRGENLDHLRNKTEDLEATSEHFKTTSQKVARKFWWKNVKMIVIICVIVLIIVILIILFATGTIPT",binds,binds,binds,binds,–
"VAMP8 (human), Q9BV40 1-100 (protein) MEEASEGGGNDRVRNLQSEVEGVKNIMTQNVERILARGENLEHLRNKTEDLEATSEHFKTTSQKVARKFWWKNVKMIVLICVIVFIIILFIVLFATGAFS",–,–,–,–,binds
"Vesicle Transport through Interaction with t-SNAREs 1B (mouse) (protein, UniProt O88384 1-232) MAASAASSEHFEKLHEIFRGLLEDLQGVPERLLGTAGTEEKKKLVRDFDENQQEANETLAEMEEELRYAPLTFRNPMMSKLRNYRKDLAKLHREVRSTPLTAAPGGRGDLKYGTYTLENEHLNRLQSQRALLLQGTESLNRATQSIERSHRIATETDQIGTEIIEELGEQRDQLERTKSRLVNTNENLSKSRKILRSMSRKVITNKLLLSVIILLELAILVGLVYYKFFRHH",–,–,binds,–,–
